Drawing on article doi:10.1101/2023.12.02.569451, this text covers binding for one molecule.

No constants are given. Whether binding was seen depends on the method and setting. Binding seen in cells or lysates may run through a third protein. These calls come from enrichment with a bait or labelling near it, and not all partners need be listed.

The test addresses EZH2 (human (endogenous in HSJD-DIPG-007)), Q15910. The experiment in a line: affinity purification with mass spectrometry. The following applies: remark: other sources report otherwise.

B1: EZH1, Q92800 1-747 (protein)
chain: MEIPNPPTSKCITYWKRKVKSEYMRLRQLKRLQANMGAKALYVANFAKVQEKTQILNEEWKKLRVQPVQSMKPVSGHPFLKKCTIESIFPGFASQHMLMRSLNTVALVPIMYSWSPLQQNFMVEDETVLCNIPYMGDEVKEEDETFIEELINNYDGKVHGEEEMIPGSVLISDAVFLELVDALNQYSDEEEEGHNDTSDGKQDDSKEDLPVTRKRKRHAIEGNKKSSKKQFPNDMIFSAIASMFPENGVPDDMKERYRELTEMSDPNALPPQCTPNIDGPNAKSVQREQSLHSFHTLFCRRCFKYDCFLHPFHATPNVYKRKNKEIKIEPEPCGTDCFLLLEGAKEYAMLHNPRSKCSGRRRRRHHIVSASCSNASASAVAETKEGDSDRDTGNDWASSSSEANSRCQTPTKQKASPAPPQLCVVEAPSEPVEWTGAEESLFRVFHGTYFNNFCSIARLLGTKTCKQVFQFAVKESLILKLPTDELMNPSQKKKRKHRLWAAHCRKIQLKKDNSSTQVYNYQPCDHPDRPCDSTCPCIMTQNFCEKFCQCNPDCQNRFPGCRCKTQCNTKQCPCYLAVRECDPDLCLTCGASEHWDCKVVSCKNCSIQRGLKKHLLLAPSDVAGWGTFIKESVQKNEFISEYCGELISQDEADRRGKVYDKYMSSFLFNLNNDFVVDATRKGNKIRFANHSVNPNCYAKVVMVNGDHRIGIFAKRAIQAGEELFFDYRYSQADALKYVGIERETDVL
Turning to B1, the binding result was “binds”.
